Assay results: US20260210939A1, “MODIFIED OLFACTORY RECEPTORS” (GIVAUDAN SA, priority 2022, published 2026)
At least one compound was matched to its structure with a doubt left.

Test system: library of all human class II OR
Experiment: Screening of the library of all class II OR (n=408, C-terminal domain SEQ ID NO: 221) with single odorants, luciferase induction
Assay type: cell-based
Settings: ligand at maximal non-cytotoxic concentration, full class II library
Experimental: All human class II OR and all key genetic variants of these OR were synthesized with a sequence coding for an identical modified C-terminal domain […] (SEQ ID NO: 221) in the vector pcDNA3.1(+) to generate a library of all class II OR with an improved C-terminal domain.
Parallel transfection experiments were conducted with all these plasmids (n=408) and cells expressing the different OR were stimulated with one given ligand at a time, tested at the maximal, clearly non-cytotoxic concentration. In total 26 different ligands were tested on the full library of class II receptors.

SMILES | Activated OR and OR variants
C[C@H]1CC[C@@]2(O)C(C)(C)[C@@H]3CC[C@@]2(C)[C@H]1C3 [Patchoulol] | OR14J1, OR7A17, OR11A1
N#CC(=C1CCCCC1)c1ccccc1 [Peonile] | OR2A25, OR2A25(S75N, A209P), OR8H1
